From patent US4190647A (Sloan-Kettering Institute for Cancer Research, priority 1979, dated 1980)
Some peptides are written in HELM: one residue between dots, names in brackets for other building blocks, links after the first $.

Experiment: Boc solid-phase peptide synthesis; chloromethylated polystyrene divinyl benzene resin; dicyclohexyl carbodiimide; α-BOC-L-glutamine-O-nitrophenyl ester coupled directl
Settings: whole synthesis, scale 2 mmol

PEPTIDE1{Y.N.I.Q.K}$$$$V2.0
final purity (method not given): 94%
